Data as given in the supplement of paper PMC10849652.
This is one part of the list.

By UniProt entry, the sequences of proteins in these tests, tags left out. Where a name states a change or a piece, a line headed by the entry shows the natural chain unless it says otherwise.
UniProt Q8IYN2: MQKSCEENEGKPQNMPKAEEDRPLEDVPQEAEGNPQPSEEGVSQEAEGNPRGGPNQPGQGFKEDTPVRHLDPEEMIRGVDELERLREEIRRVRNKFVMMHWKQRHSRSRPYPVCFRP
UniProt Q9UHQ7: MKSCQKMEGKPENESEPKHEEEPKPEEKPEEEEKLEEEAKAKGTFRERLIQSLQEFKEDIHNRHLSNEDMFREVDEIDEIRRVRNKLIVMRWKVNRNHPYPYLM
UniProt Q9NXF1: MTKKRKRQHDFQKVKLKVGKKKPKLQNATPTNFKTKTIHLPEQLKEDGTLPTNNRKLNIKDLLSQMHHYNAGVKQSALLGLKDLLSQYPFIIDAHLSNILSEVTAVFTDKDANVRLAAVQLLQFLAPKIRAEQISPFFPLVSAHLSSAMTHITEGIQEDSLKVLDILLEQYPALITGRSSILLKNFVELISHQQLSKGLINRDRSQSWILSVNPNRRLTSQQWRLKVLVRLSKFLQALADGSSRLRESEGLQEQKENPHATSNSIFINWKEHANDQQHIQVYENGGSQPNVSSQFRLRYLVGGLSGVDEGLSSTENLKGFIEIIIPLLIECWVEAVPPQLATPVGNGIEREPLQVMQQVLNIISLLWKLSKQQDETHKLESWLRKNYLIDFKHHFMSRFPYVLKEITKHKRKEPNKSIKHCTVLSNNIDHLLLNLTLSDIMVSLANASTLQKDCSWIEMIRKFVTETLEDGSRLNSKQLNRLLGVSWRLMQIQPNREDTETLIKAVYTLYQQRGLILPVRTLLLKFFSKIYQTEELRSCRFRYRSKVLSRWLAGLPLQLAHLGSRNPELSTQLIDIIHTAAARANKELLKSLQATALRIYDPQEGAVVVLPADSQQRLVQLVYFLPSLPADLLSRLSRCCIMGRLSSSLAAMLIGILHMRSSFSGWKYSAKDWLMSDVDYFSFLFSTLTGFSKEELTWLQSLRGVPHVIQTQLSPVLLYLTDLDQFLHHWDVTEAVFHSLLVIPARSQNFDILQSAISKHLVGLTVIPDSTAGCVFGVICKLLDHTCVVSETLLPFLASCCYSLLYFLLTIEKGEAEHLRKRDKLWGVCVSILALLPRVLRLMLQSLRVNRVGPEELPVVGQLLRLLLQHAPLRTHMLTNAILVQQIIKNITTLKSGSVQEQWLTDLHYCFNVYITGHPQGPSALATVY
UniProt Q8TBR7: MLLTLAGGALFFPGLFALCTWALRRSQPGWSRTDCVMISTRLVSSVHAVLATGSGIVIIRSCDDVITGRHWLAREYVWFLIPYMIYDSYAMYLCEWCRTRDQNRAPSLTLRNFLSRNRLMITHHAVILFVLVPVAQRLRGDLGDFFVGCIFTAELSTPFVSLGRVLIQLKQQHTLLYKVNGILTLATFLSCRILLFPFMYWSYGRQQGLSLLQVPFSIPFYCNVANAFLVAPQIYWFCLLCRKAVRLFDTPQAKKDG
UniProt Q14188: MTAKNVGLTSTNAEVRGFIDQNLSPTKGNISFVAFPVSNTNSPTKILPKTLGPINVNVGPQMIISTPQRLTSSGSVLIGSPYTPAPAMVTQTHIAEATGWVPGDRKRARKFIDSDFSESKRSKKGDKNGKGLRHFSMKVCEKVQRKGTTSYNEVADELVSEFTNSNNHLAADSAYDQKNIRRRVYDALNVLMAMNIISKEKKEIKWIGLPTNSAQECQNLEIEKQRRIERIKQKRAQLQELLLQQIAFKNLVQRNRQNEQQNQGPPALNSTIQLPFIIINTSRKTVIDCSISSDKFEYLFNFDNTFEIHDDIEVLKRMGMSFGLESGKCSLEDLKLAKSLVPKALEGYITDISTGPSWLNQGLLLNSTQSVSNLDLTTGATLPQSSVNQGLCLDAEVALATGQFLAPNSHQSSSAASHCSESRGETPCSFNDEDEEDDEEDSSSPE
UniProt Q8NHU6: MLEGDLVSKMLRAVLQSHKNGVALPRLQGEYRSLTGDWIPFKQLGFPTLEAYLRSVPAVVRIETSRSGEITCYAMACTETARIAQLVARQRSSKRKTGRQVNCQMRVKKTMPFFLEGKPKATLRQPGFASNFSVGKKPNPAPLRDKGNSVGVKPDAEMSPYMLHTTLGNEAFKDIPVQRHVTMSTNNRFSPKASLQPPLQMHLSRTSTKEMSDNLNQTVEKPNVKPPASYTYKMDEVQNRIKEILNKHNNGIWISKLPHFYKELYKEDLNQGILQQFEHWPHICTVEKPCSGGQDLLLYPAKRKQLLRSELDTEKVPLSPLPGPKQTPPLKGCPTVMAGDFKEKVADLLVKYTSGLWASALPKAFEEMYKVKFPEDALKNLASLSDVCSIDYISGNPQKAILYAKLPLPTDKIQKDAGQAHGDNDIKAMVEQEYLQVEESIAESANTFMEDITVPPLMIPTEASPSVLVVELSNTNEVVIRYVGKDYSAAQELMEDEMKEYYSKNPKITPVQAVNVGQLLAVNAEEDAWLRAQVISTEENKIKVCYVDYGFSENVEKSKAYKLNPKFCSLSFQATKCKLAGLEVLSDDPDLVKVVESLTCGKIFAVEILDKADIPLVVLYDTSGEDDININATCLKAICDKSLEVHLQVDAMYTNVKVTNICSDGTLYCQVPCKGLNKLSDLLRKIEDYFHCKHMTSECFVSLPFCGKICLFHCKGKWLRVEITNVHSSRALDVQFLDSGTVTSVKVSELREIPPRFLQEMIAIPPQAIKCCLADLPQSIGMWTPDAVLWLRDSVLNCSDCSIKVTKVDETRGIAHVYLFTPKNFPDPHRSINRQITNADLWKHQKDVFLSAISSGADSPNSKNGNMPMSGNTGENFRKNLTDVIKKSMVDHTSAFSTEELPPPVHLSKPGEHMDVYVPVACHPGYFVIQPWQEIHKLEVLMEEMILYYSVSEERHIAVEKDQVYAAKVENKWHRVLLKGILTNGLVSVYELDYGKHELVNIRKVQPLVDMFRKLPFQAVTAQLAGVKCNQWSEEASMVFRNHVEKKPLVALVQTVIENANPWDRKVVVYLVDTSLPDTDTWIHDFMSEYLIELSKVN
UniProt Q9Y5J6: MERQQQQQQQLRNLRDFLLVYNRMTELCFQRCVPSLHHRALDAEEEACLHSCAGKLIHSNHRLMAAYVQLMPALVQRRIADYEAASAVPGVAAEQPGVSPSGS
UniProt Q9UGU0: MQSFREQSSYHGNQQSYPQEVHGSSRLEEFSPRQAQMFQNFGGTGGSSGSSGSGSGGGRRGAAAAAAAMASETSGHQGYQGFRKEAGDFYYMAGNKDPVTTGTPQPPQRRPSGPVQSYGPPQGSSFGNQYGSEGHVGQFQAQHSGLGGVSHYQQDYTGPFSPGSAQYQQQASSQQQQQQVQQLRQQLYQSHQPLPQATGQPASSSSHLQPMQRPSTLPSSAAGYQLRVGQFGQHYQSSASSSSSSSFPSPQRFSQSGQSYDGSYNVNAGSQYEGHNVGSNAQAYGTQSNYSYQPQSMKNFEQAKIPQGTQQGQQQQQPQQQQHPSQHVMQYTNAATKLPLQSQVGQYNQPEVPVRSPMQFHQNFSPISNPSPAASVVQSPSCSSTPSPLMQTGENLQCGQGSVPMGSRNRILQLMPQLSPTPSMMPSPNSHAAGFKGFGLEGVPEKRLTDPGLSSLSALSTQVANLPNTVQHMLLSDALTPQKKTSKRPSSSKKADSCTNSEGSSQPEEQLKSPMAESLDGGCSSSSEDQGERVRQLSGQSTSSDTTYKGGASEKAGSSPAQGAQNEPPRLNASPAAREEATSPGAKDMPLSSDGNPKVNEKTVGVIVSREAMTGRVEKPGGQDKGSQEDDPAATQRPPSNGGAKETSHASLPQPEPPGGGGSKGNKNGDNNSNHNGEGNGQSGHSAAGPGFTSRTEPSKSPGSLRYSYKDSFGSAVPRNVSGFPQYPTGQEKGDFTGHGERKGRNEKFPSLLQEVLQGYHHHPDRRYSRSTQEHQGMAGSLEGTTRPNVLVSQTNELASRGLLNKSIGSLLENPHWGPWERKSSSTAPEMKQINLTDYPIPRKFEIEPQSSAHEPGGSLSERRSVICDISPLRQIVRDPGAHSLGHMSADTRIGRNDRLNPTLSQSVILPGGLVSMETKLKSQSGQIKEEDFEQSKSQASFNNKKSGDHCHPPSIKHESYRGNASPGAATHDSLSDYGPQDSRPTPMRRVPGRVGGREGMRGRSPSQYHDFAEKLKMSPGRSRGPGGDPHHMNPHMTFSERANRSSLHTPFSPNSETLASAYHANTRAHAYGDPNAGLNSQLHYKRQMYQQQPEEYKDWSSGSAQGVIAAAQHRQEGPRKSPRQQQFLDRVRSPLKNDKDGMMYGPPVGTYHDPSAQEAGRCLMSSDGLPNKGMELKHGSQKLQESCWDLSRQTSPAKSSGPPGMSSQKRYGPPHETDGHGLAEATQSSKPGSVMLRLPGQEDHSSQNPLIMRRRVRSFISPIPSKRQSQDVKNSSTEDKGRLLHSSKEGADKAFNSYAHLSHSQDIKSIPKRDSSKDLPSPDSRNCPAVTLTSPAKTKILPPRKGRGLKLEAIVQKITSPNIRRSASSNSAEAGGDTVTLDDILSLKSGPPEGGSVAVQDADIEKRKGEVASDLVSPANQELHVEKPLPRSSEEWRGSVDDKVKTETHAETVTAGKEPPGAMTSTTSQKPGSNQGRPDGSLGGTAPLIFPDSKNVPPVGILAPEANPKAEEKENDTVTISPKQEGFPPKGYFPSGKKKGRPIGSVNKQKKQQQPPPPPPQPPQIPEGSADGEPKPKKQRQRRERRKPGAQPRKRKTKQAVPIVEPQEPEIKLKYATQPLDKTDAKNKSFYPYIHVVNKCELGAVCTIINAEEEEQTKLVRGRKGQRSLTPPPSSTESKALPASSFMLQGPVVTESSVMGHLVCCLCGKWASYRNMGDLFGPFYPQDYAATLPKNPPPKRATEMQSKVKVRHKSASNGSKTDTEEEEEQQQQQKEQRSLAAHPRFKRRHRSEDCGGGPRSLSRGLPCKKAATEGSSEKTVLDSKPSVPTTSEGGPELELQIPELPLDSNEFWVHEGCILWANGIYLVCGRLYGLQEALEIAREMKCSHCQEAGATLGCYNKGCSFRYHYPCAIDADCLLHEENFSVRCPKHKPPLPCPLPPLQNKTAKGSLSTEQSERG
UniProt Q13488, whole entry, looked up: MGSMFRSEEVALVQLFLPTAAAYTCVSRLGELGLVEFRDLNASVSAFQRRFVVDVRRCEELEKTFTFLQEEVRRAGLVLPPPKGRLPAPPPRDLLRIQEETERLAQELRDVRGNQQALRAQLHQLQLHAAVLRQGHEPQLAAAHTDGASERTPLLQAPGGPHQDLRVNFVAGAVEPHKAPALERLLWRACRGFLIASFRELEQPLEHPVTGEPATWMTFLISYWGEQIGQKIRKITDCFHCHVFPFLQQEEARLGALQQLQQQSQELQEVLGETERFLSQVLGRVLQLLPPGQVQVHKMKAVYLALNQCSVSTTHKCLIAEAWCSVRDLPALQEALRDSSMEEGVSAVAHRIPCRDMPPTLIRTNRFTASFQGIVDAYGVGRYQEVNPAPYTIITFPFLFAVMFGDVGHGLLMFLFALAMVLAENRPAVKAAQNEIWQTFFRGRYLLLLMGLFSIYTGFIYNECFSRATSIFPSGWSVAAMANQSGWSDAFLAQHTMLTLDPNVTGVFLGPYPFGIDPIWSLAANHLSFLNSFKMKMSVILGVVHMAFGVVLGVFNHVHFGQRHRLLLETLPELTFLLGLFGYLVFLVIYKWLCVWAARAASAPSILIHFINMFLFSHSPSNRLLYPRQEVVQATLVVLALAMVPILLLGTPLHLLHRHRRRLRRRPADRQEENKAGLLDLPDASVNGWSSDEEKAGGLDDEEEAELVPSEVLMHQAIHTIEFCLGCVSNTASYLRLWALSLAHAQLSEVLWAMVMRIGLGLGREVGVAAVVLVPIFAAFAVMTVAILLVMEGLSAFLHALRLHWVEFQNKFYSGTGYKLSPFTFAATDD
UniProt Q5TEJ8: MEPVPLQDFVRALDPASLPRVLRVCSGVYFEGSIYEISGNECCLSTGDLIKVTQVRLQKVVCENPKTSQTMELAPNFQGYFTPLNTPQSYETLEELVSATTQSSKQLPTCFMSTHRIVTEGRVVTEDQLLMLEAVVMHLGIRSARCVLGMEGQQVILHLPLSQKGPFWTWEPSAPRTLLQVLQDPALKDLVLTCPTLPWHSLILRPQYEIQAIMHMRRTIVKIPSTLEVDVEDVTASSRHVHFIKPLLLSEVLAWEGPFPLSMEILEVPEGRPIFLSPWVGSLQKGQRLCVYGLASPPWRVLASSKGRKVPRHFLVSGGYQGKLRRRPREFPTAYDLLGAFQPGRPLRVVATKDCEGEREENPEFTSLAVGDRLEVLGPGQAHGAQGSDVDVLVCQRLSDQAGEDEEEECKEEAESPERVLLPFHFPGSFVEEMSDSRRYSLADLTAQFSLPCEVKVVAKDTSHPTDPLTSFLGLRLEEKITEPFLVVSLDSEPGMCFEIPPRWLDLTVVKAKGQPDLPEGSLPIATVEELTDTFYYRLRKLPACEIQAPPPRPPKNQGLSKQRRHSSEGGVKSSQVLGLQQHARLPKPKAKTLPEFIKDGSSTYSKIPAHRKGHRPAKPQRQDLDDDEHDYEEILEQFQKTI

How the values were obtained:
Assay in all cases: log2 fold change, soluble protein after heating vs DMSO (PISA); higher = thermal stabilisation; K562 cells, 10 uM, 30 min; active = over 0.2 and 3.5 SD of the protein, either way, in both replicates (recomputed)
zotarolimus = compound: CO[C@H]1C[C@@H]2CC[C@@H](C)[C@@](O)(O2)C(=O)C(=O)N2CCCC[C@H]2C(=O)O[C@H]([C@H](C)C[C@@H]2CC[C@H](n3cnnn3)[C@H](OC)C2)CC(=O)[C@H](C)/C=C(\C)[C@@H](O)[C@@H](OC)C(=O)[C@H](C)C[C@H](C)/C=C/C=C/C=C/1C [zotarolimus]
Method in brief: (§1)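 K562 cells at 2×10^6 cells/mL were treated with 10 μM compound for 30 min. Aliquots were heated for 3 min across 48°C-58°C, pooled, and extracted in PBS with 0.5% NP-40 at 4°C; soluble protein was the supernatant after 21,000xg for 90 min. Soluble protein was quantified by TMTpro 16plex LC-MS/MS with channel sums equalised, and reported as log2 fold change in thermal stability against DMSO controls, with values from duplicates.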

idasanutlin = compound: COc1cc(C(=O)O)ccc1NC(=O)[C@@H]1N[C@@H](CC(C)(C)C)[C@](C#N)(c2ccc(Cl)cc2F)[C@H]1c1cccc(Cl)c1F [idasanutlin]
Method in brief: as §1

alisertib = compound: COc1cc(Nc2ncc3c(n2)-c2ccc(Cl)cc2C(c2c(F)cccc2OC)=NC3)ccc1C(=O)O [alisertib]
Method in brief: as §1

[1] = compound: COc1cc2nc(-c3cc(F)ccc3O)nc(N[C@@H]3CNC[C@H]3C(C)(C)O)c2cc1OC
Method in brief: as §1

[2] = compound: COc1cccc2cc(-c3nc([C@H]4CC[C@H](C(=O)O)CC4)n4ncnc(N)c34)[nH]c12
Method in brief: as §1

lapatinib = compound: CS(=O)(=O)CCNCc1ccc(-c2ccc3ncnc(Nc4ccc(OCc5cccc(F)c5)c(Cl)c4)c3c2)o1 [lapatinib]
Method in brief: as §1

[3] = compound: COC1=CC=C(C=C1)CN2C=CC3=C2C=C(C=C3)C(=O)NO
Method in brief: as §1

gefitinib = compound: COc1cc2ncnc(Nc3ccc(F)c(Cl)c3)c2cc1OCCCN1CCOCC1 [gefitinib]
Method in brief: as §1

pictilisib = compound: CS(=O)(=O)N1CCN(Cc2cc3nc(-c4cccc5[nH]ncc45)nc(N4CCOCC4)c3s2)CC1 [pictilisib]
Method in brief: as §1

filanesib = compound: CON(C)C(=O)N1N=C(c2cc(F)ccc2F)S[C@@]1(CCCN)c1ccccc1 [filanesib]
Method in brief: as §1

Measured: log2 fold change

THTPA (UniProt Q9BU02)
inactive: zotarolimus -0.028 | idasanutlin 0.107 | alisertib -0.19 | [1] 0.117 | [2] 0.087 | lapatinib 0.015

TDRD3 isoform 3 (UniProt Q9H7E2)
inactive: alisertib 0.051 | [1] -0.022 | [2] -0.046 | lapatinib 0.1

THAP12 (UniProt O43422)
inactive: [3] 0.125 | zotarolimus 0.151 | gefitinib 0.191 | pictilisib 0.061

TENM4 (UniProt Q6N022)
inactive: [3] -0.227 | zotarolimus -0.008 | [1] 0.131 | lapatinib -0.014 | pictilisib 0.15

TCEAL4 isoform 2 (UniProt Q96EI5)
inactive: [3] -0.065 | [1] -0.168 | lapatinib 0.058 | pictilisib -0.168

TBC1D25 (UniProt Q3MII6)
inactive: zotarolimus -0.116

TCF4 isoform 3 (UniProt P15884)
inactive: zotarolimus 0.207 | [1] -0.011 | lapatinib -0.066 | pictilisib 0.024

TET2 (UniProt Q6N021)
inactive: [3] -0.009 | alisertib 0.21 | gefitinib 0.161 | [2] 0.12

TCEAL8 (UniProt Q8IYN2)
inactive: [3] -0.057 | alisertib -0.143 | gefitinib -0.015 | [2] 0.004 | pictilisib 0.147

TCEAL9 (UniProt Q9UHQ7)
inactive: filanesib 0.15

TGM2 (UniProt A2A299)
inactive: zotarolimus -0.098 | idasanutlin 0.019 | alisertib 0.202 | [1] 0.098 | [2] -0.312 | lapatinib -0.214

TCAF2 (UniProt A6NFQ2)
inactive: [3] -0.005 | zotarolimus 0.005 | gefitinib 0.054

TEX10 (UniProt Q9NXF1)
inactive: filanesib 0.386 | pictilisib -0.194

TIGAR (UniProt Q9NQ88)
inactive: pictilisib 0.062

TLCD3A (UniProt Q8TBR7)
inactive: filanesib -0.079 | idasanutlin -0.101 | [1] -0.064 | lapatinib 0.012 | pictilisib 0.179

TCOF1 isoform 3 (UniProt Q13428)
inactive: filanesib -0.152 | pictilisib 0.188

TFIP11 (UniProt Q9UBB9)
inactive: zotarolimus -0.113

TCF3 isoform 2 (UniProt P15923)
inactive: [3] -0.096 | zotarolimus -0.044 | idasanutlin -0.066 | pictilisib 0.077

TGDS (UniProt O95455)
inactive: filanesib 0.09 | zotarolimus 0.093 | idasanutlin -0.238 | alisertib -0.047 | gefitinib 0.009 | [2] 0.133 | pictilisib 0.308

TBCK (UniProt Q8TEA7)
inactive: [3] -0.123 | idasanutlin -0.251 | [1] 0.108 | gefitinib 0.121 | lapatinib -0.171 | pictilisib -0.083

TFDP2 (UniProt Q14188)
inactive: filanesib -0.043 | zotarolimus 0.158 | alisertib -0.004 | [2] 0.188

TBC1D14 (UniProt Q9P2M4)
inactive: filanesib 0.081 | idasanutlin 0.049 | alisertib -0.046 | [1] -0.224 | [2] -0.1 | lapatinib 0.004 | pictilisib 0.125

TDRD7 (UniProt Q8NHU6)
inactive: [3] 0.035 | zotarolimus -0.065 | idasanutlin 0.119 | alisertib 0.152 | [2] -0.028 | pictilisib 0.069

TLE3 (UniProt Q04726)
inactive: zotarolimus -0.211

TDP1 (UniProt Q9NUW8)
inactive: zotarolimus -0.015

Reprinted from above (12 entries):
TCAF2 (UniProt A6NFQ2)
inactive: [3] -0.005 | zotarolimus 0.005 | gefitinib 0.054

TEX10 (UniProt Q9NXF1)
inactive: filanesib 0.386 | pictilisib -0.194

TIGAR (UniProt Q9NQ88)
inactive: pictilisib 0.062

TLCD3A (UniProt Q8TBR7)
inactive: filanesib -0.079 | idasanutlin -0.101 | [1] -0.064 | lapatinib 0.012 | pictilisib 0.179

TCOF1 isoform 3 (UniProt Q13428)
inactive: filanesib -0.152 | pictilisib 0.188

TFIP11 (UniProt Q9UBB9)
inactive: zotarolimus -0.113

TCF3 isoform 2 (UniProt P15923)
inactive: [3] -0.096 | zotarolimus -0.044 | idasanutlin -0.066 | pictilisib 0.077

TGDS (UniProt O95455)
inactive: filanesib 0.09 | zotarolimus 0.093 | idasanutlin -0.238 | alisertib -0.047 | gefitinib 0.009 | [2] 0.133 | pictilisib 0.308

TBCK (UniProt Q8TEA7)
inactive: [3] -0.123 | idasanutlin -0.251 | [1] 0.108 | gefitinib 0.121 | lapatinib -0.171 | pictilisib -0.083

TFDP2 (UniProt Q14188)
inactive: filanesib -0.043 | zotarolimus 0.158 | alisertib -0.004 | [2] 0.188

TBC1D14 (UniProt Q9P2M4)
inactive: filanesib 0.081 | idasanutlin 0.049 | alisertib -0.046 | [1] -0.224 | [2] -0.1 | lapatinib 0.004 | pictilisib 0.125

TDRD7 (UniProt Q8NHU6)
inactive: [3] 0.035 | zotarolimus -0.065 | idasanutlin 0.119 | alisertib 0.152 | [2] -0.028 | pictilisib 0.069

Continuation.

TIMM10B (UniProt Q9Y5J6)
inactive: filanesib -0.068 | zotarolimus 0.023 | idasanutlin 0.009 | alisertib -0.205 | [1] 0.048 | gefitinib 0.022 | [2] 0.143 | lapatinib -0.248 | pictilisib -0.126

TK1 (UniProt K7ERV3)
inactive: filanesib 0.005 | zotarolimus -0.034 | idasanutlin -0.075 | alisertib 0.121 | [1] -0.107 | gefitinib 0.026 | [2] 0 | lapatinib -0.107 | pictilisib 0.102

TDRD15 (UniProt B5MCY1)
inactive: filanesib 0.037 | zotarolimus -0.277 | alisertib 0.088 | [2] -0.479 | pictilisib 0.387

TEDC2 (UniProt Q7L2K0)
inactive: idasanutlin 0.062

TBC1D2 (UniProt Q9BYX2)
inactive: idasanutlin 0.016 | alisertib -0.053 | [2] -0.211 | pictilisib -0.097

TCF20 (UniProt Q9UGU0)
inactive: zotarolimus -0.067 | pictilisib 0.336

TESMIN (UniProt Q9Y4I5)
inactive: gefitinib 0.056

TBC1D17 (UniProt Q9HA65)
inactive: filanesib 0.048 | zotarolimus 0.021 | idasanutlin -0.08 | alisertib 0.067 | gefitinib 0.105 | [2] 0.087 | pictilisib -0.047

TCIRG1 (UniProt Q13488)
inactive: [3] -0.022 | zotarolimus 0.068 | idasanutlin 0.143 | gefitinib -0.221 | pictilisib -0.089

TC2N (UniProt Q8N9U0)
inactive: idasanutlin -0.003 | alisertib 0.012 | gefitinib -0.066 | [2] 0.127

TFAP4 (UniProt Q01664)
inactive: [3] 0.015 | zotarolimus 0.037 | [1] 0.048 | gefitinib 0.01 | lapatinib -0.054 | pictilisib 0.008

TCP11L1 (UniProt Q9NUJ3)
inactive: idasanutlin -0.21 | alisertib -0.013 | [1] 0.05 | gefitinib -0.01 | [2] 0.044 | lapatinib -0.046

TBX1 isoform 3 (UniProt O43435)
inactive: [3] -0.314 | [1] 0.386 | gefitinib 0.042 | lapatinib -0.09

THEMIS2 (UniProt Q5TEJ8)
inactive: [3] -0.409 | [1] 0.1 | gefitinib -0.125 | lapatinib -0.002 | pictilisib 0.147
